{"source": "PubChem BioAssay AID493014", "about": "(National Center for Advancing Translational Sciences (NCATS), 2011)", "note": "Among all 340,000 compounds or so, about 170 (0.05%) were called active. Inconclusive means that the source gave no clear call. Such entries were picked first, then a sample of the others. Calls come from the whole dose curve; as a rule, active = well fitted inhibition curve with a large enough effect in the signal ratio, with a control signal flat (not every such curve was filed as active); inconclusive = small, poorly fitted or top-dose-only effect, or effect the other way, or a change in a side signal; inactive = flat fitted curve, though single readings scatter; the % refers to the signal ratio. A potency beside an inconclusive call is a rough fit, not a confirmed value. Numbered stars: 1 amine (or outer) side, 2 acyl side, 3 side chain; on linkers, the order of the positions; unused ones are H or OH. Square brackets hold non-standard residues; d marks the D form. Peptide text beside a SMILES is read from it. X2 = CCC[C@@H](N[*:1])[C@H](C)C(=O)O[C@H](C(=O)[*:2])[C@@H](C)CC; X1 = CC(N[*:1])C(=O)C(C)(C)C(=O)[*:2]; NMeY = CN[C@@H](Cc1ccc(O)cc1)C(=O)O; NMeL = CN[C@@H](CC(C)C)C(=O)O; NMeV = CN[C@H](C(=O)O)C(C)C; NMeA = CN[C@@H](C)C(=O)O"}
{"experiment": "qHTS Assay to Find Inhibitors of Chronic Active B-Cell Receptor Signaling; note: potency is the fitted concentration of half-maximal effect;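 for activity change, negative = inhibition: plate controls were basal doxycycline-induced cells for no effect and cells given 10 µM MG132 for full effect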", "conditions": "ABC-DLBCL IkBa-CBG/CBR reporter, luminescence ratio (green luciferase fused to IkBa over red control in TMD8 lymphoma cells), 4 h; activity change, negative = inhibition: at 46.1 µM (top of the series) unless noted", "outline": "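Cell line TMD8 (human ABC DLBCL), stably expressing tet-inducible CBG68-IkBa fusion and CBR; IMDM/0.5% FBS; cpd up to 46 uM; dox induction, 4 h, 37C/5% CO2; dual luminescence; green/red ratio; MG132 control.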"}
{"compound": "Cc1[nH]c2ccccc2c1/C=N/NC(=O)c1cccs1", "Potency": "inconclusive: 20 µM [falling, partial curve]"}
{"compound": "CCOc1ccccc1N1CCN(C(=O)c2c(-c3ccccc3Cl)noc2C)CC1", "activity change, negative = inhibition": "inconclusive: 0.554%"}
{"compound": "CCCCn1c2c(c3ccccc31)CCc1nonc1-2", "activity change, negative = inhibition": "inconclusive: 18.7%"}
{"compound": "COc1cccc2sc(Nc3nnc(-c4ccccc4Cl)o3)nc12", "Potency": "inconclusive: 29.1 µM [cytotoxic, single point]"}
{"compound": "CCSc1ccccc1-c1nc(-c2ccncc2)no1", "Potency": "inconclusive: 35.5 µM [falling, single point]"}
{"compound": "CCOc1ccc(S(=O)(=O)Nc2cnc3ccccc3c2)cc1", "activity change, negative = inhibition": "inconclusive: 3.56%"}
{"compound": "O=C(CNC(=O)c1ccccc1F)N/N=C/c1cc(Br)ccc1OCc1ccccc1", "activity change, negative = inhibition": "inactive: 13.2%"}
{"compound": "CCOc1ccc(NC(=S)NNC(=O)c2ccc(Br)cc2)cc1", "activity change, negative = inhibition": "inactive: 1.58%"}
{"compound": "Cc1cccc(/C(N)=N/OC(=O)CCC2CCCCC2)c1", "activity change, negative = inhibition": "inconclusive: 9.32%"}
{"compound": "C(=N\\c1ncnc2sccc12)/NOCc1ccccc1", "activity change, negative = inhibition": "inconclusive: -3.32%"}
{"compound": "CCOC(=O)C(CC)Sc1nnc2[nH]c(=O)cc(C)n12", "note": "(stereo unspecified)", "activity change, negative = inhibition": "inconclusive: -0.0944%"}
{"compound": "COC(=O)c1ccc(CNC(=O)c2ccc(OCC(=O)N3CCOCC3)c(OC)c2)cc1", "activity change, negative = inhibition": "inconclusive: -7.53%"}
{"compound": "CCCCC(C(=O)NC1CCCC1)N(C(=O)c1snc(C(N)=O)c1N)c1ccc(OCC)cc1", "note": "(stereo unspecified)", "Potency": "inconclusive: 0.355 µM [falling, full curve, poor fit]"}
{"compound": "CCCc1cc2c(=O)c(-c3ccccn3)c(C)oc2cc1O", "activity change, negative = inhibition": "inconclusive: 0.717%"}
{"compound": "O=C(CSC1=NS(=O)(=O)c2ccccc2N1)Nc1nccs1", "Potency": "inconclusive: 23.1 µM [falling, partial curve]"}
{"compound": "Nc1ccccc1C(=O)NNC(=O)C(=O)/C=C(\\O)c1ccccc1", "Potency": "inconclusive: 3.98 µM [rising, partial curve, poor fit]"}
{"compound": "CSC1=NSC2=NC(=O)/C(=C/c3coc4ccccc4c3=O)C(=N)N12", "Potency": "inconclusive: 16.4 µM [falling, single point]"}
{"compound": "O=C(c1ccccc1F)N(Cc1cccnc1)Cc1cc2cc3c(cc2[nH]c1=O)OCCO3", "activity change, negative = inhibition": "inconclusive: -0.884%"}
{"compound": "O=C(Nc1ccc(Cl)cc1)c1ccc(Br)cc1F", "Potency": "inconclusive: 15.8 µM [falling, single point]"}
{"compound": "NC(=O)NC(=O)COC(=O)c1ccc2noc(-c3ccccc3)c2c1", "Potency": "inconclusive: 25.1 µM [falling, partial curve]"}
{"compound": "Cc1ccccc1NC1=C(Cl)C(=O)OC1OC(=O)c1ccccc1C", "note": "(stereo unspecified)", "activity change, negative = inhibition": "inconclusive: -3.99%"}
{"compound": "O=C(NCC(=O)N1CCCC1)c1ccc(Br)cc1", "activity change, negative = inhibition": "inconclusive: 5.34%"}
{"compound": "CCN(C(=O)c1cc2cc(OC)ccc2oc1=O)c1ccccc1", "activity change, negative = inhibition": "inconclusive: 9.36%"}
{"compound": "Cc1cccc(Cn2c(N(C)CCO)nc3c2c(=O)[nH]c(=O)n3C)c1", "activity change, negative = inhibition": "inconclusive: 0.267%"}
{"compound": "CCOC(=O)N1CCC(N2C(=O)c3ccccc3C2Nc2c(C)cccc2C)CC1", "note": "(stereo unspecified)", "activity change, negative = inhibition": "inconclusive: -16.7%"}
{"compound": "Clc1ccccc1CN(Cc1ccccc1)c1ncnc2nc[nH]c12", "Potency": "inconclusive: 32.6 µM [falling, partial curve, poor fit]"}
{"compound": "COc1ccc(/C=N/Nc2nnc(C)n2N)cc1OC", "activity change, negative = inhibition": "inconclusive: 3.44%"}
{"compound": "COc1cc(C)nc(OCCNS(=O)(=O)c2cc(C)ccc2C)n1", "activity change, negative = inhibition": "inconclusive: -6.89%"}
{"compound": "CCC[C@H]1NC(=O)[C@H](C)N(C)C(=O)C(C)(C)C(=O)C(C)NC(=O)[C@H](Cc2ccc(OC)cc2)N(C)C(=O)[C@H](C(C)C)N(C)C(=O)CNC(=O)[C@H](CC(C)C)N(C)C(=O)CNC(=O)[C@H]([C@@H](C)CC)OC(=O)[C@H]1C", "note": "(stereo partly specified) (cyclo(G[NMeL]G[NMeV][NMeY](Me)[X1][NMeA][X2]))", "activity change, negative = inhibition": "inconclusive: -5.89%"}
{"compound": "COc1cc(Br)cc(/C=N/NC(=O)Cc2ccc(C(F)(F)F)cc2[N+](=O)[O-])c1O", "Potency": "inconclusive: 2.91 µM [falling, full curve]"}
{"compound": "Cc1ccccc1NC(=S)NCCSc1ccc(Cl)cc1", "activity change, negative = inhibition": "inconclusive: -2.09%"}
{"compound": "O=C(N/N=C/c1cn(-c2cccs2)nc1-c1ccccc1)c1ccccc1Cl", "activity change, negative = inhibition": "inconclusive: -5.26%"}
{"compound": "CCc1ccc(NC(=O)CSc2nc3[nH]ncc3c(=O)[nH]2)cc1", "activity change, negative = inhibition": "inconclusive: -2.66%"}
{"compound": "CCOc1cc(/C=C2\\SC(=O)N=C2N)ccc1O", "Potency": "inconclusive: 23.1 µM [falling, partial curve]"}
{"compound": "Cc1cccc(C(=O)Nc2sc3c(c2C(=O)O)CCCC3)c1", "activity change, negative = inhibition": "inconclusive: 211%"}
{"compound": "COc1ccc(-n2c3c(cc(C(=O)Nc4cccc(C)n4)c2=O)C(=O)CC(C)(C)C3)cc1", "activity change, negative = inhibition": "inconclusive: 1.55%"}
{"compound": "CC(C)NC(=O)c1onc(CSc2cccc(F)c2)c1C(=O)O", "Potency": "inconclusive: 31.6 µM [rising, single point]"}
{"compound": "O=[N+]([O-])c1cccc(C2NCC(c3ccccc3Cl)c3c2[nH]c2ccccc32)c1", "note": "(stereo unspecified)", "activity change, negative = inhibition": "inconclusive: 0.365%"}
{"compound": "CCCCCCCC[n+]1cccc2c3ccccc3ccc21", "Potency": "inconclusive: 12.6 µM [falling, partial curve]"}
{"compound": "CCNc1nc(Oc2ccc(C(=O)OC)cc2)nc(N2CCOCC2)n1", "Potency": "inconclusive: 17.8 µM [falling, single point]"}
{"compound": "CC(=O)c1c(C)[nH]c(C(=O)NCc2ccc(F)cc2)c1C", "activity change, negative = inhibition": "inconclusive: -6.4%"}
{"compound": "CC(C)N(C(=O)COC(=O)c1cc(Cl)cc(Cl)c1N)C(C)C", "activity change, negative = inhibition": "inconclusive: 4.39%"}
{"compound": "O=C(NCC(c1cccs1)N1CCOCC1)c1cc(-c2ccc(F)cc2)nc2ccccc12", "note": "(stereo unspecified)", "activity change, negative = inhibition": "inconclusive: 1.29%"}
{"compound": "COCCCn1c(=O)c2ccccc2n(Cc2ccccc2C)c1=O", "activity change, negative = inhibition": "inconclusive: -7.47%"}
{"compound": "COc1ccccc1CNC(=O)C1Cc2ccccc2C(=O)O1", "note": "(stereo unspecified)", "activity change, negative = inhibition": "inconclusive: 0.14%"}
{"compound": "Cn1cccc1C(=O)N1CCN(c2cccc(C(F)(F)F)c2)CC1", "activity change, negative = inhibition": "inconclusive: 14.1%"}
{"compound": "CCCNS(=O)(=O)c1ccc(OC)c(Cl)c1Cl", "Potency": "inconclusive: 18.4 µM [falling, partial curve, poor fit]"}
{"compound": "COc1ccc(NC(=S)N2CCc3ccccc3C2)cc1OC", "activity change, negative = inhibition": "inactive: -1.97%"}
{"compound": "O=C(c1cnc2nc3ccccc3n2c1)c1cc(F)ccc1O", "Potency": "inconclusive: 22.4 µM [falling, partial curve]"}
{"compound": "Nc1nc(CN2CCN(c3ccccc3F)CC2)nc(N2CCCc3ccccc32)n1", "Potency": "inconclusive: 20 µM [falling, partial curve, poor fit]"}
{"compound": "CNC(=O)c1ccc(-c2ccc(F)cc2)s1", "Potency": "inconclusive: 29.1 µM [falling, single point]"}
{"compound": "CN(C)CCNC(=O)c1onc(CSc2ccc(F)c(F)c2)c1C(=O)NCCN(C)C", "activity change, negative = inhibition": "inconclusive: -3.13%"}
{"compound": "COc1cc(-c2nc3cnccn3c2Nc2ccc(C(C)C)cc2)ccc1O", "Potency": "inconclusive: 4.61 µM [falling, full curve]"}
{"compound": "C=CCSc1ncnc2sc(C)c(C)c12", "activity change, negative = inhibition": "inconclusive: 1.77%"}
{"compound": "CNC(=O)N(C1=NCC(C)S1)c1ccc(F)cc1F", "note": "(stereo unspecified)", "activity change, negative = inhibition": "inconclusive: -2.12%"}
{"compound": "COc1ccc(OCc2nnc3n2N=C(c2ccc(OC)cc2)CS3)cc1", "Potency": "inconclusive: 16.4 µM [falling, partial curve]"}
{"compound": "COc1cc(/C=C(\\C#N)C(=O)c2ccc(O)c(O)c2)cc(I)c1O", "activity change, negative = inhibition": "inconclusive: -34.4%"}
{"compound": "COc1ccc(C(=O)NCCNc2ccc([N+](=O)[O-])cc2)cc1OC", "activity change, negative = inhibition": "inconclusive: -2.5%"}
{"compound": "CC(=O)Nc1ccc(N/C=C/C(=O)C(C)(C)C)cc1", "activity change, negative = inhibition": "inconclusive: -0.655%"}
{"compound": "CNc1ccccc1C(=O)OCC(=O)c1ccc(F)cc1", "Potency": "inconclusive: 15.8 µM [falling, partial curve]"}
{"compound": "CC(=O)Nc1ccc(C2=NN(C)C(=NCc3ccccc3)SC2)cc1", "activity change, negative = inhibition": "inconclusive: 5.28%"}
{"compound": "CCc1ccccc1N1C(=O)CC(N2CCc3ccccc32)C1=O", "note": "(stereo unspecified)", "Potency": "inconclusive: 4.47 µM [falling, partial curve, poor fit]"}
{"compound": "COc1cccc(NC(=O)CC2Oc3ccccc3NC2=O)c1", "note": "(stereo unspecified)", "activity change, negative = inhibition": "inconclusive: -2.84%"}
{"compound": "CC(=O)c1cccc(Nc2ncnc3c2cnn3-c2cccc(Cl)c2)c1", "activity change, negative = inhibition": "inactive: 14.3%"}
{"compound": "COc1cccc(NC(=O)c2oc3ccc(S(=O)(=O)N4CCOCC4)cc3c2C)c1", "activity change, negative = inhibition": "inconclusive: -22.4%"}
{"compound": "CSCC[C@H](NC(=O)[C@@H]1CSC2c3ccccc3C(=O)N21)C(=O)NCc1ccco1", "note": "(stereo partly specified)", "activity change, negative = inhibition": "inactive: 3.46%"}
{"compound": "CN1CCN(c2cc(N3CCN(C(=O)c4ccco4)CC3)c3c4c(onc24)-c2ccccc2C3=O)CC1", "activity change, negative = inhibition": "inconclusive: -11%"}
{"compound": "Clc1ccc(COc2cccc(CNCc3ccncc3)c2)cc1", "activity change, negative = inhibition": "inactive: 1.65%"}
{"compound": "CC(=O)Nc1ccc(S(=O)(=O)NCc2ccc3c(c2)cc(C)n3C)cc1", "Potency": "inconclusive: 7.31 µM [rising, partial curve, poor fit]"}
{"compound": "COC(=O)CCNC(=O)c1ccc2nc(Cc3ccc(OC)c(OC)c3)oc2c1", "activity change, negative = inhibition": "inactive: 1.38%"}
{"compound": "Cc1cccc(N=C2Sc3nc4c(C)c(C)ccc4cc3CN2CCN2CCOCC2)c1", "activity change, negative = inhibition": "inactive: 12.4%"}
{"compound": "COc1ccc(S(=O)(=O)NCc2ccccn2)cc1NC(=O)c1ccccc1", "Potency": "inconclusive: 11.2 µM [falling, single point]"}
{"compound": "CC1CCCCN1S(=O)(=O)c1ccc2[nH]c(=O)cc(C(=O)NCCc3ccc(Cl)cc3)c2c1", "note": "(stereo unspecified)", "activity change, negative = inhibition": "inconclusive: 1.63%"}
{"compound": "CCN1CCc2nc(SCC(=O)Nc3ccc(OC)cc3)c(C#N)cc2C1", "activity change, negative = inhibition": "inconclusive: 8.19%"}
{"compound": "CCn1ccnc1CN(C)Cc1cn(-c2cc(C)ccc2C)nc1-c1ccccc1", "activity change, negative = inhibition": "inconclusive: 14.1%"}
{"compound": "COc1ccc(C)cc1S(=O)(=O)N1CCCC(C(=O)N2CCN(c3ccccc3F)CC2)C1", "note": "(stereo unspecified)", "activity change, negative = inhibition": "inactive: 1.22%"}
